Results deposited as PubChem BioAssay AID1259308 (NCATS, 2017)
In all, the deposit lists about 59,000 reagents; shown is a part drawn at random. About 1,510 of them (2.6%) were called active. 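Calls use total luciferase alone and ignore viability, so some active siRNAs may act by altering cell number.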 The numbers tell different reagents against one gene apart.

Test: 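Genes whose loss raises luciferase production in HEK293 cells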 (primary screen)
Cell system: human HEK293 embryonic kidney cells stably expressing firefly luciferase (HEK-CMV-Luc2-Hygro)
Reagents: single siRNA against human genes, 0.8 pmol siRNA per well
Time to read-out: 72 h
Read-out: 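Luciferase light (ONE-Glo) measured on one replicate plate set and viability (CellTiter-Glo) on the other, scaled to a negative control siRNA, with robust z-scores and luciferase per cell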
Reading the numbers: total luciferase, z-score and total luciferase, % of control: higher = more reporter protein produced; luciferase per cell, z-score: higher = more reporter output per viable cell; viable cells, % of control: higher = more viable cells
Hit rule: 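Active when the median/MAD z-score for overall luciferase is greater than 3; a gene was taken forward for validation with new siRNAs if at least two of its three siRNAs passed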
Calls: active = raised luciferase; inactive = no rise

The opening 6 records, ahead of the listing:
gene | reagent no. | total luciferase, z-score | total luciferase, % of control | luciferase per cell, z-score | viable cells, % of control | call
UPRT | 1 | -1.15 | 59.1 | -1.38 | 95 | inactive
UPRT | 2 | -0.583 | 70.3 | -0.943 | 101 | inactive
UPRT | 3 | 1.49 | 112 | 0.854 | 99.6 | inactive
GAS6-AS1 | 1 | -0.271 | 76.5 | -0.109 | 88 | inactive
GAS6-AS1 | 2 | 0.33 | 88.4 | 0.927 | 77.4 | inactive
GAS6-AS1 | 3 | 2.32 | 128 | 2.18 | 80.5 | inactive

The list itself, from the first entry:
gene | reagent no. | total luciferase, z-score | total luciferase, % of control | luciferase per cell, z-score | viable cells, % of control | call
UPRT | 1 | -1.15 | 59.1 | -1.38 | 95 | inactive
UPRT | 2 | -0.583 | 70.3 | -0.943 | 101 | inactive
UPRT | 3 | 1.49 | 112 | 0.854 | 99.6 | inactive
GAS6-AS1 | 1 | -0.271 | 76.5 | -0.109 | 88 | inactive
GAS6-AS1 | 2 | 0.33 | 88.4 | 0.927 | 77.4 | inactive
GAS6-AS1 | 3 | 2.32 | 128 | 2.18 | 80.5 | inactive
TFE3 | 1 | -0.136 | 79.2 | -0.707 | 107 | inactive
TFE3 | 2 | -0.516 | 71.6 | -1.06 | 106 | inactive
TFE3 | 3 | -0.217 | 77.6 | -0.407 | 96.5 | inactive
TACC2 | 1 | 3.56 | 153 | 1.73 | 108 | active
TACC2 | 2 | -1.23 | 57.4 | -1.22 | 88.4 | inactive
TACC2 | 3 | 3.7 | 156 | 2.82 | 82.6 | active
ASAH2B | 1 | 0.248 | 86.8 | 0.486 | 85.4 | inactive
ASAH2B | 2 | -0.586 | 70.2 | -1.09 | 105 | inactive
ASAH2B | 3 | 1.77 | 117 | 1.59 | 86.1 | inactive
CPA5 | 1 | -0.226 | 77.4 | -0.259 | 92.6 | inactive
CPA5 | 2 | -0.237 | 77.2 | -0.0153 | 86.6 | inactive
CPA5 | 3 | -0.547 | 71 | -0.247 | 84.7 | inactive
CT45A3 | 1 | -0.886 | 64.3 | -0.00361 | 71.9 | inactive
CT45A3 | 2 | -0.521 | 71.5 | -0.53 | 91.9 | inactive
CT45A3 | 3 | 0.161 | 85.1 | -0.521 | 109 | inactive
CDX2 | 1 | -0.533 | 71.3 | -0.339 | 87.1 | inactive
CDX2 | 2 | -0.57 | 70.6 | -1.59 | 120 | inactive
CDX2 | 3 | 0.426 | 90.4 | 0.204 | 95.7 | inactive
ROR2 | 1 | 0.354 | 88.9 | 0.552 | 85.9 | inactive
ROR2 | 2 | 1.66 | 115 | 1.11 | 95.8 | inactive
ROR2 | 3 | -0.344 | 75 | -0.919 | 107 | inactive
DHRS4L1 | 1 | 2.63 | 134 | 2.33 | 81.2 | inactive
DHRS4L1 | 2 | -0.862 | 64.7 | -0.525 | 83.1 | inactive
DHRS4L1 | 3 | -0.121 | 79.5 | -0.189 | 93.3 | inactive
SLC24A2 | 1 | 0.141 | 84.7 | 0.622 | 80.3 | inactive
SLC24A2 | 2 | -1.11 | 59.8 | -0.988 | 86.7 | inactive
SLC24A2 | 3 | 1.37 | 109 | 0.989 | 94.1 | inactive
CENPQ | 1 | 0.555 | 92.9 | -0.0788 | 106 | inactive
CENPQ | 2 | 0.227 | 86.4 | -0.158 | 101 | inactive
CENPQ | 3 | 0.194 | 85.7 | -0.323 | 104 | inactive
PLEKHG4 | 1 | 0.714 | 96.1 | 0.102 | 105 | inactive
PLEKHG4 | 2 | -1.89 | 44.2 | -2.47 | 94.6 | inactive
PLEKHG4 | 3 | -1.13 | 59.3 | -0.795 | 81.7 | inactive
DUSP22 | 1 | 1.85 | 119 | 1.87 | 81 | inactive
DUSP22 | 2 | 0.414 | 90.1 | 0.0164 | 100 | inactive
DUSP22 | 3 | -0.433 | 73.3 | -0.683 | 98 | inactive
PDCD4 | 1 | 0.571 | 93.3 | 1.11 | 77.7 | inactive
PDCD4 | 2 | 3.73 | 156 | 3.02 | 78.9 | active
PDCD4 | 3 | -0.29 | 76.1 | -0.65 | 101 | inactive
TAS2R40 | 1 | -0.449 | 73 | 0.0776 | 79.9 | inactive
TAS2R40 | 2 | 1.52 | 112 | 1.47 | 85.2 | inactive
TAS2R40 | 3 | 2.49 | 131 | 1.66 | 94.9 | inactive
CHST6 | 1 | 0.0187 | 82.3 | -0.584 | 107 | inactive
CHST6 | 2 | 2.7 | 136 | 2.35 | 81.7 | inactive
CHST6 | 3 | 1.33 | 108 | 0.978 | 93.5 | inactive
SLC45A1 | 1 | 0.63 | 94.4 | 0.128 | 102 | inactive
SLC45A1 | 2 | -0.0751 | 80.4 | -0.352 | 98.6 | inactive
SLC45A1 | 3 | -0.926 | 63.5 | -0.0643 | 72.1 | inactive
PRSS8 | 1 | -1.36 | 54.8 | -1.61 | 93.5 | inactive
PRSS8 | 2 | 1.23 | 106 | 0.754 | 97.5 | inactive
PRSS8 | 3 | -0.395 | 74 | 0.114 | 80.3 | inactive
